According to the supplement of paper PMC10849652:
Some of the results follow.

By UniProt entry, the sequences of proteins in these tests, tags left out. Where a name states a change or a piece, a line headed by the entry shows the natural chain unless it says otherwise.
UniProt Q5T750: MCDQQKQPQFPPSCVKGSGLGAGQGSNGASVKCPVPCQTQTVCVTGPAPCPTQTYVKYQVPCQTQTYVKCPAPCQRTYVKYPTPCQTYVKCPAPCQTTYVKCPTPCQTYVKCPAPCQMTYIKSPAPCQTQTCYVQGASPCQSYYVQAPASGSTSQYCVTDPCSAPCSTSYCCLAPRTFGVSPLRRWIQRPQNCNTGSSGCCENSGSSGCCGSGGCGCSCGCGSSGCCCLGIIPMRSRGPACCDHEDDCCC
UniProt Q9H7M9, whole entry, looked up: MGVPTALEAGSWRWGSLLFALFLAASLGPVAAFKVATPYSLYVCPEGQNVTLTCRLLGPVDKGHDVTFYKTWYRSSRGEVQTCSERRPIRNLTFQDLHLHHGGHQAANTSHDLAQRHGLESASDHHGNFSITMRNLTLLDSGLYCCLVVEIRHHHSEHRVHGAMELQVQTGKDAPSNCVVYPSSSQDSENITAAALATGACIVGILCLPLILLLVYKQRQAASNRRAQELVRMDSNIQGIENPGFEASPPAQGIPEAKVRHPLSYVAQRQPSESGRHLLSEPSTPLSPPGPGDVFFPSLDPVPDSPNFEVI
UniProt Q9H967: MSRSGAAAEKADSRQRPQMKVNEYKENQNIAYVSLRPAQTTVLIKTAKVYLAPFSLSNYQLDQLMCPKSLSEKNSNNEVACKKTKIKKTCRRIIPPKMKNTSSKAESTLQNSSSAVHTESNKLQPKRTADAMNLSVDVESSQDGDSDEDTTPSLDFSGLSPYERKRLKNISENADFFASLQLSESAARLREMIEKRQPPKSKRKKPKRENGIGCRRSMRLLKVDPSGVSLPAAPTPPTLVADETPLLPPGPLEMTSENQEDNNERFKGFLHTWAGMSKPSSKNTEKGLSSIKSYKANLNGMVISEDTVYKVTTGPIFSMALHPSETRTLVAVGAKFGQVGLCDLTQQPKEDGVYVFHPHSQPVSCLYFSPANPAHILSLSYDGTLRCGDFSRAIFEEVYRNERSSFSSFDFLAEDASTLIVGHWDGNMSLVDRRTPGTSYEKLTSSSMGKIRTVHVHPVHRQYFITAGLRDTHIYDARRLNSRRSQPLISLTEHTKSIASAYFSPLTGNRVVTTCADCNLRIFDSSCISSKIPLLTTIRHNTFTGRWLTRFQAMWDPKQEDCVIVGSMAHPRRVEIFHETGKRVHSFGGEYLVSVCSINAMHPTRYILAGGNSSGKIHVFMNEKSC
UniProt P17861: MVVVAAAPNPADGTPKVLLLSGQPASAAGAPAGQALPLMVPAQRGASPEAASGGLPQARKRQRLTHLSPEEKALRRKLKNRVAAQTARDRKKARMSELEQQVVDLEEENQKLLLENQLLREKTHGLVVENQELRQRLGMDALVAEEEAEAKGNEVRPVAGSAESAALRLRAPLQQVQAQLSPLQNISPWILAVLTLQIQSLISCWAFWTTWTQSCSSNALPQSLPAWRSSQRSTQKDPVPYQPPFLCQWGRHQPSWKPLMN
UniProt Q9UN37: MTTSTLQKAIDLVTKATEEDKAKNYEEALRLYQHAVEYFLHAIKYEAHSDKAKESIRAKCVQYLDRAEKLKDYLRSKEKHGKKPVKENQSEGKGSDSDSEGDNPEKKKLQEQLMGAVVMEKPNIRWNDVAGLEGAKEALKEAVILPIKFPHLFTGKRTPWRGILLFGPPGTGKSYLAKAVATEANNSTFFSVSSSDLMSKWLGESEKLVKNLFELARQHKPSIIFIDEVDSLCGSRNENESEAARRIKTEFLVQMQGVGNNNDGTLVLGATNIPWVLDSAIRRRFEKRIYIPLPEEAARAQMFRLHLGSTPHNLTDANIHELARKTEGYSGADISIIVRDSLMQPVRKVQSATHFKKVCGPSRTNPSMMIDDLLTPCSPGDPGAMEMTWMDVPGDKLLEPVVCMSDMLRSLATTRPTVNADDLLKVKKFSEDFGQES
UniProt A4UGR9: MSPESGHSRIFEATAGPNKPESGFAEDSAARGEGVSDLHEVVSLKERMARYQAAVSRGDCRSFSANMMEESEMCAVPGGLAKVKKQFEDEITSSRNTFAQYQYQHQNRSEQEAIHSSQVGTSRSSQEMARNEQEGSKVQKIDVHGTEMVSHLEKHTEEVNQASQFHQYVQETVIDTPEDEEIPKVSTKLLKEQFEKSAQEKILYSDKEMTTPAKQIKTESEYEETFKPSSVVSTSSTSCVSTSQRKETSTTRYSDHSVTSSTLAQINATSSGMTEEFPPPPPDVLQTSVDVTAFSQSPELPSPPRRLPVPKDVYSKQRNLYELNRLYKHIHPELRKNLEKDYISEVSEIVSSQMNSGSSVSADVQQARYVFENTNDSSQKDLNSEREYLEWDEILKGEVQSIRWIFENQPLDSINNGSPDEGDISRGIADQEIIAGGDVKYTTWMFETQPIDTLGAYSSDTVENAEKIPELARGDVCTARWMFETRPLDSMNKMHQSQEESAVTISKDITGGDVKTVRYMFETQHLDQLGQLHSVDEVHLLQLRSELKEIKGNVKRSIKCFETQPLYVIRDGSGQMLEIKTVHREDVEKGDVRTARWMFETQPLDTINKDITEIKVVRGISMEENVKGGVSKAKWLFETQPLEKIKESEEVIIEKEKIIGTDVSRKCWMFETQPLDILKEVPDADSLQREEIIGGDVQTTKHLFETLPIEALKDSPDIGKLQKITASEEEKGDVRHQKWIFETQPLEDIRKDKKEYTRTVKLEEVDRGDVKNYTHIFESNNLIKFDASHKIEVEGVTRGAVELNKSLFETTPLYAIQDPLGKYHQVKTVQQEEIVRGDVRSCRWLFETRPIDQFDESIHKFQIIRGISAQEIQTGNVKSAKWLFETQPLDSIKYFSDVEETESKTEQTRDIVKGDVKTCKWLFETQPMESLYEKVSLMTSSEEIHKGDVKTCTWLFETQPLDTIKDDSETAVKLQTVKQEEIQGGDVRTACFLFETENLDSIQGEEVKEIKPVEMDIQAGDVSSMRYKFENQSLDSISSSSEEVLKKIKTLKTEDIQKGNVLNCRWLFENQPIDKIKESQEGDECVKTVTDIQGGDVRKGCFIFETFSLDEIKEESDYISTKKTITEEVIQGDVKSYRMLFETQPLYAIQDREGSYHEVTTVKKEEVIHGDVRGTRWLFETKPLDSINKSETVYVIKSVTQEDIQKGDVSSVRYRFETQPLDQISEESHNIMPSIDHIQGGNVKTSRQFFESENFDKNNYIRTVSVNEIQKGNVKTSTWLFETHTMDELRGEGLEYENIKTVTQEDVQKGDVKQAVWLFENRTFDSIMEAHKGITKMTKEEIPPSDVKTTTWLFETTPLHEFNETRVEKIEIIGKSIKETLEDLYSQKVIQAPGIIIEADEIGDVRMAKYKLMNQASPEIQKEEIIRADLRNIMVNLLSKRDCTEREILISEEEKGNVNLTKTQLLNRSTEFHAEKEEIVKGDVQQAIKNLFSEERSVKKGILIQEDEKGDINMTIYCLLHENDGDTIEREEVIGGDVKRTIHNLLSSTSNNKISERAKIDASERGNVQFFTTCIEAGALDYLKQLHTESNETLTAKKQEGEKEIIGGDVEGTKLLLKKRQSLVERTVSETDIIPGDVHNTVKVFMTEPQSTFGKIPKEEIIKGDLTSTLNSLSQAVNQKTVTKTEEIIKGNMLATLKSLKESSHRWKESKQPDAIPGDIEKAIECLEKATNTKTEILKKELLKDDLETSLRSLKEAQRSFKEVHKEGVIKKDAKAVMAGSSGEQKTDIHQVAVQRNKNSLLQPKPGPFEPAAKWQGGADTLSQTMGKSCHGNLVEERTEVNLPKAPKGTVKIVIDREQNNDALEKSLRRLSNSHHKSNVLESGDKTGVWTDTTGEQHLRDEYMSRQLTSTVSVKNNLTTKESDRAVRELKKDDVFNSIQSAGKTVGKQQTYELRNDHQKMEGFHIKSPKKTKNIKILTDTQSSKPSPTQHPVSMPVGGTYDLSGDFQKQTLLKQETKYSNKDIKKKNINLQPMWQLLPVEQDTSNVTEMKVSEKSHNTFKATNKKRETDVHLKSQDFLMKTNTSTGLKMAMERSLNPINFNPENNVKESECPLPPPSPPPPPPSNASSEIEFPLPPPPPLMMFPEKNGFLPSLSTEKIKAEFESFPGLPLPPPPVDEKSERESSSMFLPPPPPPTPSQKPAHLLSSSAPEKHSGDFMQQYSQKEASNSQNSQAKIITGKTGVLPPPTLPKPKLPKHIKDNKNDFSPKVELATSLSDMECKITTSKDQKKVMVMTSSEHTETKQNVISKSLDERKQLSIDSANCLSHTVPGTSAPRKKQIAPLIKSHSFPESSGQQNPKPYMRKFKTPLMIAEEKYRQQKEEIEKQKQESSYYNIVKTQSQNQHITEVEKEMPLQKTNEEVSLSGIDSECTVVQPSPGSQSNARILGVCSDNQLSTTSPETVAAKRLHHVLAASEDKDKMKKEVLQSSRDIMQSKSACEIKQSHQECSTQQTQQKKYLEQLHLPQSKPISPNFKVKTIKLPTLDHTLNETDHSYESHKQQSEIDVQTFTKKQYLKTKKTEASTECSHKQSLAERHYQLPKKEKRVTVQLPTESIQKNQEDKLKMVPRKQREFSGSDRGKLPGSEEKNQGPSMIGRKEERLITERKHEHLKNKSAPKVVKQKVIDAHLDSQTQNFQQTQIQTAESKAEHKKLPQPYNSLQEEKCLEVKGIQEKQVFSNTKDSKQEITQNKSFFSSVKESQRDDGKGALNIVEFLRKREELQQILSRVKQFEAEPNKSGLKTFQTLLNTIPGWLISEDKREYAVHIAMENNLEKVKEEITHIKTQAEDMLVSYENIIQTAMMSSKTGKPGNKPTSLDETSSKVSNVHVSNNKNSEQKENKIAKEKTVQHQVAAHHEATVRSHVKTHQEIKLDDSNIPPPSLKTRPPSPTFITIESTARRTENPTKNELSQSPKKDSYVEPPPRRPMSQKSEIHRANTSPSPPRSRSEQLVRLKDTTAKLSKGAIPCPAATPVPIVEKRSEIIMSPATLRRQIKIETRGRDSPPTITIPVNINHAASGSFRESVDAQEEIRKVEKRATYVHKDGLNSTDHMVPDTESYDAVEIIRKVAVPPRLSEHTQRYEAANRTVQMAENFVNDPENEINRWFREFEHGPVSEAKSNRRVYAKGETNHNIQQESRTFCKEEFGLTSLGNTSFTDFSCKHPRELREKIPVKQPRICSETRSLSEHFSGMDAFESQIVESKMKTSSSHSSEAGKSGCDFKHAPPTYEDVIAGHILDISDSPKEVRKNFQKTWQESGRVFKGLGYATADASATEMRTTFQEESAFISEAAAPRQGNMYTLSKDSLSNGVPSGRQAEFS
UniProt P51811: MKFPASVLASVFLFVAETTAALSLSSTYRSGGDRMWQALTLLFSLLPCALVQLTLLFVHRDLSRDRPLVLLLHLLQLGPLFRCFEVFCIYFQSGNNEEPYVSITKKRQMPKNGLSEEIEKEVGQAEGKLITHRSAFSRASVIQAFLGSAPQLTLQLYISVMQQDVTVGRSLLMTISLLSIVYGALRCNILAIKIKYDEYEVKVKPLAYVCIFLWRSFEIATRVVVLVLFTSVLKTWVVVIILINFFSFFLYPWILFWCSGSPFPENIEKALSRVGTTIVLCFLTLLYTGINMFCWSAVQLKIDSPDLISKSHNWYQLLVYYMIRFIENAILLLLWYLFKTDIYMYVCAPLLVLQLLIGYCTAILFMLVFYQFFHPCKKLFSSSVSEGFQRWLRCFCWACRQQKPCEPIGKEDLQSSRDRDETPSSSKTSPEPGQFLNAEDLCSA
UniProt P42768: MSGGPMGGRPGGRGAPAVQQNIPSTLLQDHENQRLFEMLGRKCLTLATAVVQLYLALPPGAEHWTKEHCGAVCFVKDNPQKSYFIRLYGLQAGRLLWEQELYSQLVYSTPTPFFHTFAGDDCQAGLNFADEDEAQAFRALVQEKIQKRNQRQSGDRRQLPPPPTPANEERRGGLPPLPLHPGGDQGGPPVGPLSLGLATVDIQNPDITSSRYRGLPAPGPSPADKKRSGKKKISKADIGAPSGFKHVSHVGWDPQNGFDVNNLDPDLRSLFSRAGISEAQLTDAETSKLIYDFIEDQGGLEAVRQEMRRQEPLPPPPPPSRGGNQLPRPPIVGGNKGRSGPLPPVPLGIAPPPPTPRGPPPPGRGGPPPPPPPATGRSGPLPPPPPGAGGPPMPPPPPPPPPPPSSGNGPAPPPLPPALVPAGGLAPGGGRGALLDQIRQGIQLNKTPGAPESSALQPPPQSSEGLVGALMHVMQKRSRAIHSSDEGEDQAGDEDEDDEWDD

Legend:
Assay in all cases: log2 fold change, soluble protein after heating vs DMSO (PISA); higher = thermal stabilisation; K562 lysate, 10 uM; active = over 0.2 and 3.5 SD of the protein, either way, in both replicates (recomputed)
[1] = compound: Cc1cn(-c2cc(NC(=O)c3ccc(C)c(Nc4nccc(-c5cccnc5)n4)c3)cc(C(F)(F)F)c2)cn1 [nilotinib]
Procedure, shortened: (§1)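 K562 pellets were dounce-homogenised in PBS pH 7.4 containing 1 mM MgCl2, and the crude extract, at 1 mg/mL protein, was exposed to 10 μM compound for 30 min. Aliquots were heated for 3 min across 48°C-58°C, pooled, brought to 0.5% NP-40 at 4°C and spun at 21,000xg for 90 min, with the supernatant taken as soluble protein. TMTpro 16plex LC-MS/MS with equalised channel sums quantified that protein. Values are log-two fold changes in thermal stability relative to solvent controls, taken from duplicates.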

[2] = compound: Cc1nc(Nc2n[nH]c3c2CN(C(=O)N[C@H](CN(C)C)c2ccccc2)C3(C)C)c2sccc2n1
Procedure, shortened: as §1

[3] = compound: Cc1ncc(-c2ccnc(Nc3ccc(S(C)(=O)=O)cc3)n2)n1C(C)C
Procedure, shortened: as §1

[4] = compound: Cn1cncc1[C@@](N)(c1ccc(Cl)cc1)c1ccc2c(c1)c(-c1cccc(Cl)c1)cc(=O)n2C [tipifarnib]
Procedure, shortened: as §1

[5] = compound: NC(=O)c1cnc(N[C@@H]2CCCC[C@@H]2N)nc1Nc1cccc(-n2nccn2)c1
Procedure, shortened: as §1

[6] = compound: c1cn2cc(-c3ccc4cn[nH]c4c3)nc(Nc3ccc(N4CCOCC4)cc3)c2n1 [entospletinib]
Procedure, shortened: as §1

[7] = compound: Cc1nc(Nc2ncc(C(=O)Nc3c(C)cccc3Cl)s2)cc(N2CCN(CCO)CC2)n1 [dasatinib]
Procedure, shortened: as §1

[8] = compound: Cn1cc(-c2ccc3c(c2)CCN3C(=O)Cc2cccc(C(F)(F)F)c2)c2c(N)ncnc21
Procedure, shortened: as §1

[9] = compound: Cn1cc(CNCC2CCN(c3ncc(C(=O)NO)cn3)CC2)c2ccccc21 [quisinostat]
Procedure, shortened: as §1

[10] = compound: NC(=O)Nc1cc(-c2cccc(F)c2)sc1C(=O)N[C@H]1CCCNC1
Procedure, shortened: as §1

[11] = compound: NC1(c2ccc(-c3nc4ccn5c(=O)[nH]nc5c4cc3-c3ccccc3)cc2)CCC1
Procedure, shortened: as §1

[12] = compound: NCC(=O)Nc1ccc(-n2nc(C(F)(F)F)cc2-c2ccc3c(ccc4ccccc43)c2)cc1
Procedure, shortened: as §1

[13] = compound: O=C(CCCCCCC(=O)Nc1ccccc1)NO [vorinostat]
Procedure, shortened: as §1

[14] = compound: O=C(O)c1ccc2c(c1)nc(Nc1cccc(Cl)c1)c1ccncc12 [silmitasertib]
Procedure, shortened: as §1

[15] = compound: O=C1NC(=O)C(c2cnc3ccccn23)=C1c1cn2c3c(cc(F)cc13)CN(C(=O)N1CCCCC1)CC2
Procedure, shortened: as §1

Measured: log2 fold change

WARS1 (UniProt G3V5U1)
inactive: [1] -0.134 | [2] 0.727 | [3] 0.027 | [4] 0.324 | [5] 0.037 | [6] -0.368

WDR12 (UniProt Q9GZL7)
inactive: [1] 0.005 | [2] 0.014 | [7] -0.002 | [3] -0.015 | [8] -0.008 | [9] -0.006 | [4] 0.031 | [10] 0.013 | [5] -0.005 | [11] 0.005 | [12] 0.005 | [13] 0.06 | [14] -0.014 | [15] -0.042 | [6] 0.016

WARS1 (UniProt G3V456)
inactive: [5] -0.334

VPS18 (UniProt Q9P253)
inactive: [1] -0.013 | [2] -0.029 | [7] -0.016 | [3] 0.003 | [8] -0.005 | [9] -0.018 | [4] -0.05 | [10] 0.029 | [5] 0.01 | [11] -0.019 | [12] -0.016 | [14] 0.04 | [15] 0.015 | [6] -0.006
active: [13] -0.386

VPS26A (UniProt O75436)
inactive: [1] 0.011 | [2] -0.008 | [7] -0.009 | [3] -0.017 | [8] -0.023 | [9] -0.097 | [4] 0.002 | [10] -0.001 | [5] -0.014 | [11] -0.023 | [12] 0.007 | [13] 0.044 | [14] 0.001 | [15] -0.013 | [6] 0.029

XP32 (UniProt Q5T750)
inactive: [9] 0.763 | [10] 0.55 | [15] 0.347

VPS29 (UniProt Q9UBQ0)
inactive: [7] -0.118 | [8] -0.053 | [9] 0.075 | [10] 0.073 | [5] 0.163 | [11] -0.077 | [12] 0.074 | [13] -0.044 | [14] 0.074 | [15] 0.063

VSIR (UniProt Q9H7M9)
inactive: [7] -0.022 | [8] -0.08 | [9] 0.145 | [10] -0.059 | [5] -0.04 | [11] 0.054 | [12] -0.03 | [13] 0.115 | [14] -0.038 | [15] -0.194 | [6] 0.028

WDR76 (UniProt Q9H967)
inactive: [1] 0.003 | [2] 0.071 | [7] 0.099 | [3] 0.003 | [8] -0.145 | [9] -0.098 | [4] 0.008 | [10] 0.013 | [15] 0.054 | [6] -0.033

WDR46, A0A0G2JJL1
inactive: [1] 0.068 | [2] -0.127 | [7] 0.037 | [3] 0.003 | [8] 0.048 | [4] 0.112 | [5] 0.039 | [12] 0.154

WAC isoform 5 (UniProt Q9BTA9)
inactive: [7] -0.336 | [8] 0.254 | [11] -0.129 | [13] -0.002 | [14] 0.351

Reprinted at random: 2 entries already listed, in no set order.
WDR76 (UniProt Q9H967)
inactive: [1] 0.003 | [2] 0.071 | [7] 0.099 | [3] 0.003 | [8] -0.145 | [9] -0.098 | [4] 0.008 | [10] 0.013 | [15] 0.054 | [6] -0.033

WAC isoform 5 (UniProt Q9BTA9)
inactive: [7] -0.336 | [8] 0.254 | [11] -0.129 | [13] -0.002 | [14] 0.351

Later entries

WARS1 (UniProt G3V277)
inactive: [12] -0.047 | [6] -0.067

XBP1 isoform 2 (UniProt P17861)
inactive: [11] -0.061 | [13] -0.104 | [14] 0.011

VPS4A (UniProt Q9UN37)
active: [13] -0.356
inactive: [1] -0.011 | [2] 0.008 | [7] -0.075 | [3] 0.002 | [8] 0.056 | [9] -0.027 | [4] 0.023 | [10] 0.019 | [5] 0.004 | [11] -0.011 | [12] -0.026 | [14] 0.059 | [15] -0.013 | [6] 0.038

XIRP2 isoform 8 (UniProt A4UGR9)
inactive: [1] 0.245 | [2] -0.06 | [3] -0.121 | [4] 0.028 | [5] 0.065

VWA3B isoform 6 (UniProt Q502W6)
inactive: [1] -0.025 | [2] -0.031 | [7] -0.15 | [3] 0.009 | [8] 0.03 | [9] 0.117 | [4] 0.026 | [10] -0.002 | [5] -0.064 | [11] -0.045 | [13] -0.096 | [14] 0.074 | [15] -0.091 | [6] 0.006

WDR13, A0A087X091
inactive: [12] 0.028

XK (UniProt P51811)
inactive: [1] 0.057 | [2] 0.055 | [7] 0.018 | [3] -0.149 | [8] -0.141 | [4] 0.075 | [5] -0.143 | [11] -0.021 | [13] 0.052 | [14] 0.008 | [6] -0.053

VPS35, A0A1W2PP10
inactive: [1] -0.052 | [2] -0.03 | [3] -0.031 | [9] -0.064 | [4] -0.149 | [10] -0.018 | [5] 0.051 | [11] -0.154 | [13] -0.038 | [14] -0.146 | [15] -0.029

WDR83 (UniProt Q9BRX9)
inactive: [1] 0.173 | [2] 0.092 | [7] -0.116 | [3] 0.058 | [8] 0.137 | [4] -0.216 | [5] -0.039 | [12] 0.242

WAS (UniProt P42768)
active: [1] 0.636
inactive: [2] -0.102 | [7] 0.095 | [3] 0.318 | [8] 0.129 | [4] -0.064 | [11] 0.025 | [13] -0.07 | [14] 0.025 | [6] -0.055
